This note sets out measurements from PubChem BioAssay AID493014 (National Center for Advancing Translational Sciences (NCATS), 2011).

Some of the results follow. Further columns of the screen follow, without active or inactive calls. Most of these compounds were active or inconclusive in the main read-out, so they are no random draw. Words in brackets tell the shape of the fitted curve; partial curves, single points and poor fits give uncertain potencies.

A short description of the assay: qHTS Assay to Find Inhibitors of Chronic Active B-Cell Receptor Signaling. The settings on record: ABC-DLBCL IkBa-CBG/CBR reporter, luminescence ratio (green luciferase fused to IkBa over red control in TMD8 lymphoma cells), 4 h; measured here: CBR red luminescence, cell number. The procedure, abridged: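 Concentration-response series (up to 46 uM) were applied to TMD8 dual-reporter cells for 4 h at 37C with doxycycline. Green/red ratio, after filter-overlap correction, defined %Activity; red signal alone was normalised to basal cells and zero luminescence.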
In general terms: Quantitative high-throughput screening tests each substance at several concentrations.
Regarding `CCN(C(=O)COC(=O)c1cc(OC)ccc1Br)C1CCS(=O)(=O)C1` (stereo unspecified), the AC50 (commonly the concentration at which the activity in the assay is half-maximal) was 2.59 µM [falling, partial curve].

As for `Cc1ccc(/C([O-])=C(/C(=S)Nc2ccc(SC(F)F)cc2)[n+]2ccccc2)cc1[N+](=O)[O-]`, the half-maximal activity concentration (AC50) is 7.94 µM [rising, partial curve].

Regarding `CSCc1ccc(C(=O)Nc2cc(C)cc(C)c2)cc1`, the AC50 was 20.6 µM [falling, partial curve, poor fit].

As for `COc1ccccc1/C=C/C=N/NC(=O)CC1C(=O)NN=C1C` (stereo unspecified), the AC50 is 8.91 µM [falling, partial curve].

With `CC(C)c1onc(C(=O)N2C(C)CCCC2C)c1[N+](=O)[O-]` (stereo unspecified), the AC50 is 3.26 µM [rising, partial curve, poor fit].

Regarding `O=C(Nc1c(F)cc(F)cc1Br)C1CCCO1` (stereo unspecified), the AC50 is 18.4 µM [rising, single point].

As for `CCN1C(=O)C(CC(=O)Nc2ccc(OC)cc2)N(CCc2ccccc2F)C1=S` (stereo unspecified), the AC50 was 28.2 µM [falling, single point].

As for `O=[N+]([O-])c1ccc(S(=O)(=O)N2CCN(c3ccc(N4CCOCC4)nn3)CC2)cc1`, the AC50 is 2.91 µM [rising, partial curve, poor fit].

With `COc1cccc(-c2nn(C)c3sc(C(=O)NCc4ccco4)cc23)c1`, the concentration at half-maximal activity (AC50) is 0.517 µM [falling, full curve, poor fit].

For the compound `Cc1cccc(CSCc2ccc(C(=O)NCCc3ccccc3)o2)c1`, the AC50 was 10 µM [rising, partial curve, poor fit].

For `CC(C)c1ccc2oc3nc(N)c(C(=O)O)cc3c(=O)c2c1`, the AC50 is 35.5 µM [falling, single point].

In the case of `C/C(Cc1ccccc1)=N\NC(=O)CNC(=O)c1ccccc1O`, the AC50 is 35.5 µM [falling, single point].

For the compound `Cc1ccccc1NC(=O)CNc1ccccc1C(=O)NCc1ccco1`, the AC50 is 2.59 µM [falling, full curve, poor fit].

Take `O=C1N=C(N2CCN(c3ccccc3)CC2)S/C1=C/c1cccs1`: the AC50 is 0.651 µM [rising, full curve].

As for `Cc1csc(SCC(=O)N2CCCC2)n1`, the AC50 is 14.1 µM [rising, partial curve, poor fit].

`Cc1cccc(NC(=O)CSc2nncn2-c2ccccn2)c1`: the AC50 was 35.5 µM [falling, single point].

For `CC(=O)N(Cc1ccccc1)c1ncc2c(n1)c(=O)c(C#N)c1ccccn12`, the AC50 is 29.1 µM [falling, single point].

Take `Cc1ccccc1OC1C(=O)N(CC2CCCO2)C1c1ccc2c(c1)OCO2` (stereo unspecified): the AC50 was 35.5 µM [falling, single point].

In the case of `CSc1nsc(SCC(=O)Nc2ccc(C(=O)O)cc2)n1`, the AC50 is 8.91 µM [falling, single point].

Regarding `O=C(/C=C/c1ccccc1)Nc1cccnc1`, the AC50 was 12.6 µM [falling, partial curve].

On to `COC(=O)Nc1ccccc1C(=O)N1CCCCC1`, for which the AC50 is 29.1 µM [rising, single point].

In the case of `CCOC(=O)c1c(NC(=O)COC(=O)/C=C/c2ccccc2)sc(C(=O)NC)c1C`, the AC50 was 18.4 µM [rising, partial curve, poor fit].

As to `COC(=O)c1cn(C(=O)c2ccc(Cl)cc2)c2ccccc12`, the AC50 is 2.24 µM [rising, full curve].

On to `Cc1[nH]c2ccccc2c1SCCNC(=O)c1ccc(Br)o1`, for which the AC50 was 16.4 µM [falling, partial curve].

In the case of `O=C1OC(/C=C/c2ccccc2)=NC/1=C/c1ccco1`, the AC50 is 29.1 µM [falling, single point].

Consider `CC(C)C[C@H](NC(=O)[C@@H]1Cc2c([nH]c3ccccc23)C2c3ccccc3C(=O)N21)C(=O)NCC1CCCO1` (stereo partly specified), for which the AC50 is 12.6 µM [falling, single point].

Consider `COc1ccc(-c2noc(CSc3nc4ccccc4c(=O)n3-c3ccccc3)n2)cc1OC`, for which the AC50 is 29.1 µM [rising, single point].

As to `COc1ccc(C(=O)N2CCC(n3c(C)nc4cc(F)ccc43)CC2)cc1`, the AC50 was 1.12 µM [falling, partial curve, poor fit].

Regarding `COc1ccccc1/C=C1\SC(=O)N(CCC(=O)N(C)C2CCS(=O)(=O)C2)C1=O` (stereo unspecified), the AC50 was 10 µM [falling, partial curve].

Take `COC(=O)[C@H](CC(C)C)NC(=O)Nc1ccc(S(N)(=O)=O)cc1`: the AC50 is 35.5 µM [rising, single point].

Take `Cn1c(N)c(C(=O)CSc2n[nH]c(-c3ccccc3)n2)c(=O)n(C)c1=O`: the AC50 is 3.66 µM [rising, partial curve, poor fit].

For `COc1ccc(C(O)P(=O)(OCC(C)C)c2ccc(N(C)C)cc2)c(OC)c1` (stereo unspecified), the AC50 is 14.1 µM [rising, single point].

Consider `COc1ccc(C(C)=O)cc1CSc1nc2cc(C(=O)O)ccc2c(=O)n1Cc1ccccc1`, for which the AC50 was 29.1 µM [rising, single point].

Consider `CCN1C(=O)C(CC(=O)Nc2ccc(OC)cc2)N(CCc2ccc(OC)cc2)C1=S` (stereo unspecified), for which the AC50 is 35.5 µM [falling, partial curve, poor fit].

`CCN(CC)C(=O)CSc1nc(-c2ccc(C)cc2)nc2c1COC(C)(C)C2`: the AC50 is 0.058 µM [rising, full curve, poor fit].

For the compound `CCCC(=O)n1nc(-c2cccnc2)nc1NCc1ccc(OC)cc1`, the AC50 is 15.8 µM [falling, partial curve, poor fit].

Consider `CC1CCCCN1CCCNC(=O)c1ccc2nc(N3CCCCC3)sc2c1` (stereo unspecified), for which the AC50 is 5.01 µM [falling, partial curve, poor fit].

As for `COc1ccc(NS(=O)(=O)c2cccc(NC(=O)CNC(C)=O)c2)cc1`, the AC50 was 7.08 µM [rising, full curve, poor fit].

On to `COc1ccc(C)cc1S(=O)(=O)N(CC(=O)N1CCCC1)c1ccccc1`, for which the AC50 is 13 µM [rising, single point].

As for `Cc1nnsc1C(=O)N1CCN(c2ccc(C#N)cn2)CC1`, the AC50 was 3.16 µM [falling, partial curve].

Turning to `COC(=O)c1nn(-c2ccccc2)c(Sc2ccccc2)c1/C=N/O`, the AC50 was 22.4 µM [falling, partial curve, poor fit].
